Data reported in patent US20200010413A1, “Benzoquinone derivatives for treatment of cancer and methods of making the benzoquinone derivatives” (United Arab Emirates University, priority 2016, published 2020).

Tested on: telomeric G-quadruplex DNA AGGG(TTAGGG)3
Assay: UV-Vis absorption titration, Scatchard plot and molar ratio method
Type: binding, human
Settings: linear or nonlinear Scatchard plot
Description: Telomeric G-quadruplex DNA was prepared by heating gently 2.0 ml of stock single stranded 5′-[…]-3′ DNA (SEQ ID NO: 1) up to 95.0° C. Resultant solution was incubated at 95.0° C. for 10 min. The solution was left to cool gently down to room temperature, then kept in fridge at 4.0° C. overnight before use. A 10^−5 M fluorescein labeled G-quadruplex DNA was prepared similarly using 5′-Flu-telomeric DNA.
Successive amounts of G-quadruplex DNA (AGGG(TTAGGG)3, 1.44×10^−4 M) were added to 1.00 ml of each BQ (5×10^−6 M) in Tris-KCl buffer, pH 7.4. Solution was shacked well after each addition, incubated for 3 min at room temperature and its absorbance was scanned in the range 200-600 nm. Titration was stopped when no change in absorbance was observed. The experiment was reversed by adding successive amounts of the each BQ (1×10^−3 M) to 1.0 ml of 4×10^−6 M G-quadruplex DNA.
The molar ratio method based on measuring UV-Vis absorption was used for determining stoichiometry of G-quadruplex DNA interactions with BQs. A 1.00 ml BQs (5×10^−6 M) was titrated with telomere G-quadruplex (1.44×10^−4 M) in Tris-KCl buffer, pH 7.4. The solution was shacked well after each addition, incubated for 3.0 min at room temperature and scanned in the range 200-600 nm. A plot of absorbance versus molar ratio [BQs]/[DNA] was constructed.
Binding affinity of the BQs towards telomere G-quadruplex DNA were estimated using Scatchard model based on the above UV-Vis absorption titration. Scatchard plot was constructed as
Wherein r is the number of moles of the BQ bound to one mole of telomere G-quadruplex DNA (Cb/[G-quadruplex DNA], Cf is the free BQ's concentration, n is number of equivalent binding sites per G-quadruplex molecule and K is the binding constant. The free and bound concentrations of BQ (Cf and Cb) are calculated using Cb=Ctotal−Cf, where Ctotal is the concentration of BQ at zero addition of G-quadruplex and Cf is calculated using Cf=Ctotal(1−α). The fraction of BQ bound to G-quadruplex (α) is calculated using
where Af, A and Ab are the absorbance at zero addition, after each addition and at saturation, respectively. Linear plots of
versus r give slope and intercept equals to K and n, respectively. For nonlinear plots, the modified Scatchard equation
was used. Plots of r against Cf were subjected to nonlinear fitting to get the values of K and n.

Type of binding sites, one type of binding sites:
O=C1C=C(Nc2cc(F)c(F)c(F)c2)C(=O)C=C1Nc1cc(F)c(F)c(F)c1 [BQ2, 2,5-bis-(3,4,5-trifluoroanilino)-1,4-benzoquinone]
O=C1C=C(Nc2ccc(F)cc2)C(=O)C=C1Nc1ccc(F)cc1 [BQ4, 2,5-bis-(4-fluoroanilino)-1,4-benzoquinone]
O=C1C=C(Nc2ccccc2)C(=O)C=C1Nc1ccccc1 [BQ5, 2,5-bis-anilino-1,4-benzoquinone]
O=C1C=C(NCCN2CCCC2)C(=O)C=C1NCCN1CCCC1 [BQ9, 2,5-bis((2-(pyrrolidin-1-yl)ethyl)amino)-1,4-benzoquinone]
O=C1C=C(NCc2ccc(C(F)(F)F)cc2)C(=O)C=C1NCc1ccc(C(F)(F)F)cc1 [BQ10, 2,5-bis-(4-trifluoromethylbenzylamino)-1,4-benzoquinone]
COc1ccc(CNC2=CC(=O)C(NCc3ccc(OC)c(OC)c3)=CC2=O)cc1OC [BQ12, 2,5-bis-(3,4-dimethoxybenzylamino)-1,4-benzoquinone]

Some entries repeat one wording, which the source may state once for all of them.
